# Experimental data from PubChem BioAssay AID493014 (National Center for Advancing Translational Sciences (NCATS), 2011).
# The other results are listed elsewhere or left out. Further columns of the screen follow, without active or inactive calls. Compounds called inactive in the main read-out are mostly missing here. Words in brackets tell the shape of the fitted curve; partial curves, single points and poor fits give uncertain potencies.
# Test: qHTS Assay to Find Inhibitors of Chronic Active B-Cell Receptor Signaling
# Conditions: ABC-DLBCL IkBa-CBG/CBR reporter, luminescence ratio (green luciferase fused to IkBa over red control in TMD8 lymphoma cells), 4 h
# Summary of the method: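 TMD8 human ABC-DLBCL cells with doxycycline-inducible IκBα–green luciferase fusion and unfused red luciferase, in 0.5% FBS medium; compounds up to 46 uM, 4 h at 37C. Green/red luminescence ratio, filter-overlap corrected, fitted to concentration-response curves.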
# [1] = measured here: CBR red luminescence, cell number
# [2] = measured here: IkBa-CBG green luminescence
compound,measurement,setting,value
CC(C)C[C@H](NC(=O)[C@@H]1Cc2c([nH]c3ccccc23)C2c3ccccc3C(=O)N21)C(=O)NCC1CCCO1 (stereo not given in full),AC50,[1],"12.6 µM [falling, single point]"
COc1ccc(-c2noc(CSc3nc4ccccc4c(=O)n3-c3ccccc3)n2)cc1OC,AC50,[1],"29.1 µM [rising, single point]"
COc1ccc(C(=O)N2CCC(n3c(C)nc4cc(F)ccc43)CC2)cc1,AC50,[1],"1.12 µM [falling, partial curve, poor fit]"
COc1ccccc1/C=C1\SC(=O)N(CCC(=O)N(C)C2CCS(=O)(=O)C2)C1=O (stereo not given),AC50,[1],"10 µM [falling, partial curve]"
COC(=O)[C@H](CC(C)C)NC(=O)Nc1ccc(S(N)(=O)=O)cc1,AC50,[1],"35.5 µM [rising, single point]"
Cn1c(N)c(C(=O)CSc2n[nH]c(-c3ccccc3)n2)c(=O)n(C)c1=O,AC50,[1],"3.66 µM [rising, partial curve, poor fit]"
COc1ccc(C(O)P(=O)(OCC(C)C)c2ccc(N(C)C)cc2)c(OC)c1 (stereo not given),AC50,[1],"14.1 µM [rising, single point]"
COc1ccc(C(C)=O)cc1CSc1nc2cc(C(=O)O)ccc2c(=O)n1Cc1ccccc1,AC50,[1],"29.1 µM [rising, single point]"
CCN1C(=O)C(CC(=O)Nc2ccc(OC)cc2)N(CCc2ccc(OC)cc2)C1=S (stereo not given),AC50,[1],"35.5 µM [falling, partial curve, poor fit]"
CCN(CC)C(=O)CSc1nc(-c2ccc(C)cc2)nc2c1COC(C)(C)C2,AC50,[1],"0.058 µM [rising, full curve, poor fit]"
CCCC(=O)n1nc(-c2cccnc2)nc1NCc1ccc(OC)cc1,AC50,[1],"15.8 µM [falling, partial curve, poor fit]"
CC1CCCCN1CCCNC(=O)c1ccc2nc(N3CCCCC3)sc2c1 (stereo not given),AC50,[1],"5.01 µM [falling, partial curve, poor fit]"
COc1ccc(NS(=O)(=O)c2cccc(NC(=O)CNC(C)=O)c2)cc1,AC50,[1],"7.08 µM [rising, full curve, poor fit]"
COc1ccc(C)cc1S(=O)(=O)N(CC(=O)N1CCCC1)c1ccccc1,AC50,[1],"13 µM [rising, single point]"
Cc1nnsc1C(=O)N1CCN(c2ccc(C#N)cn2)CC1,AC50,[1],"3.16 µM [falling, partial curve]"
COC(=O)c1nn(-c2ccccc2)c(Sc2ccccc2)c1/C=N/O,AC50,[1],"22.4 µM [falling, partial curve, poor fit]"
Brc1ccc(-c2nc3ccccc3s2)s1,AC50,[1],"3.98 µM [rising, partial curve, poor fit]"
CSc1cc(-c2ccc(Cl)cc2)c(C(=O)NN)s1,AC50,[1],"10 µM [rising, partial curve, poor fit]"
Cc1[nH]c2ccccc2c1/C=N/Nc1nc2ccccc2[nH]1,AC50,[1],"31.6 µM [falling, single point]"
same,AC50,[2],"20 µM [falling, single point]"
COc1ccccc1N1C(=O)CC1(C#N)c1ccc(OCc2ccccc2)cc1 (stereo not given),AC50,[1],"29.1 µM [falling, single point]"
Oc1ccc(-c2nnc(Nc3cccc(O)c3)c3ccccc23)cc1,AC50,[1],"35.5 µM [falling, single point]"
same,AC50,[2],"6.31 µM [falling, partial curve, poor fit]"
O=C(COC(=O)CSc1ccc2ccccc2c1)Nc1ccccc1OC(F)F,AC50,[1],"20.6 µM [rising, partial curve, poor fit]"
CCOC(=O)c1sc(N)c(C(=O)OCC)c1COC(=O)C1CC(=O)N(Cc2ccco2)C1 (stereo not given),AC50,[1],"18.4 µM [rising, single point]"
COCc1cc(OC)nc(-c2csc(C)n2)n1,AC50,[1],"5.62 µM [rising, single point]"
CN1CCN(c2ccc(-c3cccc(NC(=O)COc4ccccc4)c3)nn2)CC1,AC50,[1],"20.6 µM [falling, single point]"
CC(=O)c1ccc(OC(=O)CCN2c3ccccc3Sc3ccccc32)cc1,AC50,[1],"20.6 µM [falling, single point]"
COCCSc1ccccc1C(=O)Nc1ccc(Cl)cn1,AC50,[1],"0.731 µM [rising, full curve, poor fit]"
Cc1ccc(NC(=O)Nc2ccc3c(c2)N(C)C(=O)CS3)cc1C,AC50,[1],"6.51 µM [rising, single point]"
Cc1ccc(N(Cc2ccccc2)C(=O)c2cccc(S(=O)(=O)N3CC(C)OC(C)C3)c2)cc1 (stereo not given),AC50,[1],"29.1 µM [falling, single point]"
N#Cc1ccsc1NC(=O)CN1CCN(c2ccccn2)CC1,AC50,[1],"0.366 µM [rising, full curve, poor fit]"
COc1cc(C(=S)N2CCC(C)CC2)ccc1O,AC50,[1],"25.9 µM [rising, single point]"
COc1ccccc1-c1nc(-c2ccccn2)no1,AC50,[1],"8.2 µM [falling, partial curve, poor fit]"
Cc1nn(C)c(C)c1N1C(=O)c2cccc3c(Br)ccc(c23)C1=O,AC50,[1],"5.17 µM [falling, partial curve, poor fit]"
same,AC50,[2],"3.66 µM [rising, full curve]"
O=S(=O)(NCc1cn2ccccc2n1)c1cccs1,AC50,[1],"3.55 µM [falling, partial curve, poor fit]"
O=C(NCCC1=CCCCC1)c1ccc(Cl)cc1,AC50,[1],"11.2 µM [falling, partial curve, poor fit]"
COc1ccc(NC(=O)CCNS(=O)(=O)c2cccc(C(C)=O)c2)cc1S(N)(=O)=O,AC50,[1],"35.5 µM [rising, single point]"
O=C(N/N=C/c1ccoc1)c1cc(Br)ccc1O,AC50,[1],"0.501 µM [falling, full curve]"
Fc1ccc(-n2ncc3c(NCCC4=CCCCC4)ncnc32)cc1,AC50,[1],"0.501 µM [rising, full curve]"
CCOC(=O)c1ccc(NC(=O)COc2cc3oc(=O)c(CC(C)O)c(C)c3cc2Cl)cc1 (stereo not given),AC50,[1],"0.0891 µM [rising, full curve, poor fit]"
COc1cccc(NS(=O)(=O)c2ccc3[nH]cc(C(=O)NCCC(C)C)c(=O)c3c2)c1,AC50,[1],"35.5 µM [falling, single point]"
CCCCC(=O)N1CCCC(c2nc3c(nnn3Cc3cc(C)ccc3C)c(=O)[nH]2)C1 (stereo not given),AC50,[1],"3.98 µM [rising, single point]"
COc1ccccc1C(=O)COC(=O)c1ccc(-n2cnnn2)cc1,AC50,[1],"7.31 µM [falling, partial curve, poor fit]"
CNC(=O)C(C#N)(Cc1cc(C(C)=O)ccc1OC)Cc1cc(C(C)=O)ccc1OC,AC50,[1],"0.794 µM [rising, full curve, poor fit]"
COCCN(C(=O)Cc1ccc(OC)c(OC)c1)c1nc(-c2cc(OC)ccc2OC)cs1,AC50,[1],"17.8 µM [rising, single point]"
COc1ccc(/C=N/Nc2cc(C)nc3c(C)cccc23)cc1,AC50,[1],"35.5 µM [falling, partial curve, poor fit]"
CC(SC#N)C(=O)C12CC3CC(CC(C3)C1)C2 (stereo not given),AC50,[1],"3.55 µM [falling, full curve, poor fit]"
O=C(NNC(=O)c1ccc(O)c(Cl)c1)c1cccc(S(=O)(=O)N2CCOCC2)c1,AC50,[1],"29.1 µM [falling, single point]"
N#C/C(C(=O)N1CCOCC1)=C1\Nc2ccccc2S1,AC50,[1],"1.46 µM [falling, full curve, poor fit]"
CCN1C(=O)C(CC(=O)Nc2ccc(F)cc2)N(Cc2ccco2)C1=S (stereo not given),AC50,[1],"25.1 µM [falling, single point]"
C=CCOc1ccc(C(=O)Nc2ccccc2C(=O)NCc2cccnc2)cc1,AC50,[2],"11.2 µM [falling, partial curve, poor fit]"
O=C(CSc1nnc(NC(=O)c2ccc(F)cc2)s1)NCc1ccco1,AC50,[1],"12.6 µM [falling, partial curve, poor fit]"
COc1ccc(/C=N/NC(=O)c2[nH]c3ccc(C)cc3c2-c2ccccc2)c(C(=O)O)c1OC,AC50,[2],"7.08 µM [falling, full curve]"
CN(Cc1ccccc1)S(=O)(=O)c1cc2c3c(c1)CCN3C(=O)CC2,AC50,[1],"1.3 µM [rising, partial curve]"
CC(=O)Nc1ccc(S(=O)(=O)NCCC(=O)NCC2COc3ccccc3O2)cc1 (stereo not given),AC50,[1],"10 µM [rising, single point]"
C/C(=N/NC(=O)CSc1nc2ccccc2n1C)c1ccc(O)cc1,AC50,[1],"6.31 µM [falling, partial curve]"
COc1ccccc1N1CCN(S(=O)(=O)c2ccc(NC(C)=O)cc2)CC1,AC50,[1],"22.4 µM [rising, partial curve, poor fit]"
C[C@H]1COc2c(C3(N)CC3)c(F)cc3c(=O)c(C(=O)O)cn1c23,AC50,[1],"8.91 µM [falling, partial curve, poor fit]"
CCOC(=O)c1nn(-c2ccc(Cl)cc2)c2nc(Nc3ccccc3)cc(=O)n12,AC50,[1],"23.1 µM [rising, single point]"
COc1ccc2[nH]cc(C(=O)CCl)c2c1,AC50,[1],"10 µM [falling, partial curve, poor fit]"
COc1ccc(-n2cnc3cc([N+](=O)[O-])ccc32)cc1,AC50,[1],"3.55 µM [rising, partial curve, poor fit]"
COc1ccc(C(=O)/C=C(\C)Nc2ccc3c(c2)OCO3)cc1,AC50,[1],"15.8 µM [rising, single point]"
Cc1ccc(S(=O)(=O)NCCC(=O)NC2CCC(C)CC2)cc1 (stereo not given),AC50,[1],"6.51 µM [rising, partial curve, poor fit]"

# An excerpt from the list above:
compound,measurement,setting,value
Brc1ccc(-c2nc3ccccc3s2)s1,AC50,[1],"3.98 µM [rising, partial curve, poor fit]"
CSc1cc(-c2ccc(Cl)cc2)c(C(=O)NN)s1,AC50,[1],"10 µM [rising, partial curve, poor fit]"
Cc1[nH]c2ccccc2c1/C=N/Nc1nc2ccccc2[nH]1,AC50,[1],"31.6 µM [falling, single point]"
same,AC50,[2],"20 µM [falling, single point]"
